Our source for the binding values is article PMC11667820.

The chains behind the UniProt entries cited, without tags or fusion partners.
UniProt Q9BST9: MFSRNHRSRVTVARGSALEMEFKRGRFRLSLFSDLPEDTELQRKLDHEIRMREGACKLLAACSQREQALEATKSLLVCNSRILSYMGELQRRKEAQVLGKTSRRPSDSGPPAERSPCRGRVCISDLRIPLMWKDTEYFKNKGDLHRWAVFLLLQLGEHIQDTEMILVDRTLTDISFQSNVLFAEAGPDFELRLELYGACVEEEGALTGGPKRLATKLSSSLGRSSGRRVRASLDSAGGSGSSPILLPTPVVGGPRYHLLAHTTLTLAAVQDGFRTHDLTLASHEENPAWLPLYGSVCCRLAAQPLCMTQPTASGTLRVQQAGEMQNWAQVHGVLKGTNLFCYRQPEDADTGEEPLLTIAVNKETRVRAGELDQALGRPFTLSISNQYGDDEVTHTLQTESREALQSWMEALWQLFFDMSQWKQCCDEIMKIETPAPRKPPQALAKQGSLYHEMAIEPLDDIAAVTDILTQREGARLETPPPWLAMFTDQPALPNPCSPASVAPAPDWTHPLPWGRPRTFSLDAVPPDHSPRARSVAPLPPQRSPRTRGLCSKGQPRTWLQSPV

These are yes or no findings as the source states them, for the method shown. In cells and extracts the contact can be indirect. Some results given as binding are weak or reduced against the parent protein; the word gives no strength.

The target in experiment [1] is T1, vinexin-β (human (endogenous in FaDu and SAS)) (UniProt O60504).
T1 sequence: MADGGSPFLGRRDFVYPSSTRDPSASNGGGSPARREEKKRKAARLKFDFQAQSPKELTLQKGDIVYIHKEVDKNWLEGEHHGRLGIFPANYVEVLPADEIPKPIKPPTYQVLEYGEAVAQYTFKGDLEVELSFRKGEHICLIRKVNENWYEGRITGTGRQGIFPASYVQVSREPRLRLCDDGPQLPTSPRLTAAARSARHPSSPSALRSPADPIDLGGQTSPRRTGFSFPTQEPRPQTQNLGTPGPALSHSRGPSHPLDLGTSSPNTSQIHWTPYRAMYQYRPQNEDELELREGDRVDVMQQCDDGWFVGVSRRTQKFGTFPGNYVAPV
The experiment is described as follows: co-IP; anti-vinexin immunoprecipitation from lysates of SAS cells expressing RARγ4 constructs; lysis buffer 20 mM Tris-HCl pH 7.5, 150 mM NaCl, 1 mM Na2EDTA, 1 mM EGTA, 0.2% Triton, 1 mM PMSF; 4 °C overnight; protein A/G-agarose; blot for rhotekin and RARγ4.

Experiment [2] has as its target T2, native RARγ1 (retinoic acid receptor gamma isoform 1) (human (endogenous in FaDu and SAS)) (UniProt P13631).
T2 sequence: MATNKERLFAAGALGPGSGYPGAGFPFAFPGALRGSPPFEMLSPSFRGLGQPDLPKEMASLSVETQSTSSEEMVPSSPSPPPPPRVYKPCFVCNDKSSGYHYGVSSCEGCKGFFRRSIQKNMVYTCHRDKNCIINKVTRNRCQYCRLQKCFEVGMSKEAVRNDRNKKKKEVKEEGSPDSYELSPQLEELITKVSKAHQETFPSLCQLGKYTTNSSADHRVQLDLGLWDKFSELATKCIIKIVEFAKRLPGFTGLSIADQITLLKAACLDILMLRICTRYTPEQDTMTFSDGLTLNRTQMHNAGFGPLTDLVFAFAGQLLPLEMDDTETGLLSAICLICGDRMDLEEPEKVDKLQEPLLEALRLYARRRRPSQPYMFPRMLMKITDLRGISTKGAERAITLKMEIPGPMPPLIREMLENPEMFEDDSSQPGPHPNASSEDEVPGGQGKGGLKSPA
The experiment is described as follows: co-IP; anti-RARγ1 immunoprecipitation of native RARγ1 from lysates of FaDu and SAS cells, with or without serum starvation (up to 72 h); blot for vinexin-β.

Take rhotekin (from UniProt Q9BST9 1-563): the binding entry in experiment [1] is given as “binds”.

B1: vinexin-β (protein, UniProt O60504-2 1-329)
chain: T1 sequence
With B1, in experiment [2], the binding entry is “binds”.
